Reference: PubChem BioAssay AID504467 (National Center for Advancing Translational Sciences (NCATS), 2011)
Among all 330,000 compounds or so, about 7,700 (2.3%) were called active. The shares of active, inactive and inconclusive entries below differ from those in the screen. The call rests on the fitted dose curve; in most records, active means well fitted inhibition curve with a large enough effect; inconclusive means small, poorly fitted or top-dose-only effect, or effect the other way; inactive means flat fitted curve, though single readings scatter. Where the call is inconclusive, the potency comes from a doubtful curve fit.

Assay: qHTS screen for small molecules that inhibit ELG1-dependent DNA repair in human embryonic kidney (HEK293T) cells expressing luciferase-tagged ELG1; further: nearly all actives have a fitted effect of over 55% in size
Settings: HEK293T ELG1-luciferase reporter, luminescence, 16 h, DNA damage induced by 5-fluorouridine; activity change, negative = inhibition: at 46.1 µM (top of the series)
Outline: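 In this reporter screen, reduction of luminescence relative to DMSO vehicle indicated activity. Compounds and 5-fluorouridine were added together to 2,000 cells per well, incubated for 16 hr at 37 °C, then developed with ONE-Glo.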
On the % scale 0 is the no-effect control and ±100 the full control effect; potency means the concentration at half of the fitted maximal effect.

Q: Which Potency does the source give for `O=C(CN1CCN(S(=O)(=O)c2ccc3ccccc3c2)CC1)Nc1ccc(N2CCOCC2)cc1` here?
A: inconclusive: 18.4 µM [inhibitor, partial curve, poor fit]

Q: For `COc1ccc(Cl)cc1NC(=O)Nc1ccc(C(=O)N2CCOCC2)cc1`, which Potency is on record?
A: inactive

Q: Which Potency does the source give for `O=C(Nc1ccc(NC(=O)c2ccccc2F)cc1)c1ccccc1F` here?
A: inconclusive: 25.9 µM [activator, single point]

Q: For `CN1C(=O)/C(=C\c2ccc(OC(=O)c3ccco3)cc2)SC1=S`, which Potency is on record?
A: inconclusive: 16.4 µM [activator, partial curve, poor fit]

Q: Which Potency does the source give for `O=C(Nc1nc2ccccc2s1)Nc1ccc(F)cc1F` here?
A: inconclusive: 4.11 µM [activator, partial curve]

Q: Which Potency does the source give for `O=C1N=C(N2CCC(Cc3ccccc3)CC2)S/C1=C/c1cn[nH]c1-c1ccccc1` here?
A: inconclusive: 20.6 µM [inhibitor, partial curve]

Q: With `Cc1nnc2c(NC3CCCC3)nc3ccccc3n12` as the molecule, how does the Potency read?
A: inconclusive: 18.3 µM [activator, partial curve]

Q: Which Potency does the source give for `O=C(COC(=O)c1ccccc1C(=O)c1ccc(Cl)c([N+](=O)[O-])c1)NC1CC1` here?
A: inconclusive: 29.1 µM [inhibitor, single point]

Q: With `CC(=O)c1c(C)[nH]c(C(=O)OCC(=O)Nc2cc(C(F)(F)F)ccc2N2CCOCC2)c1C` as the molecule, how does the Potency read?
A: inconclusive: 32.6 µM [inhibitor, single point]

Q: For `COc1ccc2cc(C(=O)NCc3ccccc3)[nH]c2c1`, which Potency is on record?
A: inactive

Q: Which Potency does the source give for `CN(C(=O)CSc1nc2sc3c(c2c(=O)n1C)CCC3)C1CCS(=O)(=O)C1` (stereo unspecified) here?
A: inactive

Q: For `Cc1ccc(NC(=O)c2cc(C)on2)cc1`, which Potency is on record?
A: inconclusive: 14.6 µM [activator, partial curve]

Q: For `COc1ccccc1CNC(=O)CN1C(=O)NC2(CCCCCC2)C1=O`, which Potency is on record?
A: inactive

Q: For `CON(C)C(=O)/C=C/CCCCNC(=O)OC(C)(C)C`, which Potency is on record?
A: inconclusive: 13 µM [activator, partial curve, poor fit]

Q: Which Potency does the source give for `Cc1nn(Cc2ccccc2)c(Cl)c1/C=C/C(=O)OC(C)C(=O)N1CCCC1` (stereo unspecified) here?
A: inconclusive: 16.4 µM [inhibitor, single point]

Q: With `O=C(Oc1ccc(C(=S)N2CCOCC2)cc1Cl)c1ccccc1F` as the molecule, how does the Potency read?
A: inconclusive: 31.6 µM [activator, single point]

Q: With `Cc1cc(OCc2nc(-c3ccc(NC(=O)c4cccnc4)cc3)no2)ccc1Cl` as the molecule, how does the Potency read?
A: inactive

Q: Which Potency does the source give for `CS(=O)(=O)N1CCC(C(=O)Nc2ccccc2Br)CC1` here?
A: inactive

Q: With `COc1ccc(-c2cc(=O)c(C(=O)c3ccc(C)cc3)n[nH]2)cc1` as the molecule, how does the Potency read?
A: inactive

Q: Which Potency does the source give for `CN1CCN(c2nc(-c3cccs3)cc(C(F)(F)F)n2)CC1` here?
A: inactive

Q: With `Cc1ccc(-n2c(=S)[nH]c3[nH]ncc3c2=O)cc1` as the molecule, how does the Potency read?
A: inactive

Q: With `COc1cccc(/C=N/Nc2nc3ccccc3[nH]2)c1O` as the molecule, how does the Potency read?
A: active: 4.11 µM

Q: Which Potency does the source give for `CN(c1ccccc1C(=O)Nc1ccccc1C(=O)NCc1ccco1)S(C)(=O)=O` here?
A: inactive

Q: For `Cc1cc(Br)ccc1NC(=O)CN1C(=O)C2C3CC(c4ccccc4)C(C3)C2C1=O` (stereo unspecified), which Potency is on record?
A: inconclusive: 23.1 µM [inhibitor, single point]

Q: With `CC(=O)c1cc(F)c(N2CCN(C(=O)C(C)(C)C)CC2)cc1C` as the molecule, how does the Potency read?
A: inactive

Q: Which Potency does the source give for `CC1CCN(C(=O)CSc2ccc(-c3cccc([N+](=O)[O-])c3)nn2)CC1` here?
A: inconclusive: 29.1 µM [inhibitor, single point]

Q: Which Potency does the source give for `Cc1ccccc1C(=O)Nc1nc2c(C)csc2c(=O)s1` here?
A: inactive

Q: For `CC(=O)NCc1ccc(C(=O)CCl)s1`, which activity change, negative = inhibition is on record?
A: inconclusive: 426% [activator]

Q: For `CCOc1ccccc1CNC(=O)C1CCN(c2nnc(C)c3c(C)n(-c4ccc(C)cc4)nc23)CC1`, which Potency is on record?
A: inconclusive: 23.1 µM [inhibitor, partial curve, poor fit]

Q: For `CCN(CC)C(=O)/C=C/c1ccc(OC)c(S(=O)(=O)N2CCCCC2)c1`, which Potency is on record?
A: inconclusive: 16.4 µM [inhibitor, single point]

Q: Which Potency does the source give for `CC1CC(C)(C)NC(=S)N1CCC(=O)N1CCc2ccccc21` (stereo unspecified) here?
A: inactive

Q: With `CC(Cc1ccccc1)C(=O)NCc1ccccn1` (stereo unspecified) as the molecule, how does the Potency read?
A: inconclusive: 23.1 µM [activator, partial curve, poor fit]

Q: With `CNC(=O)NC(=O)CSc1cccc(C(F)(F)F)c1` as the molecule, how does the Potency read?
A: inactive

Q: With `CS(=O)(=O)c1ccc(Cl)c(C(=O)OCC(=O)NC2CCCCCCC2)c1` as the molecule, how does the Potency read?
A: inactive

Q: Which Potency does the source give for `CCC(C)C(=O)Nc1ccccc1N1CCN(c2ccc(F)cc2)CC1` (stereo unspecified) here?
A: inconclusive: 7.3 µM [inhibitor, partial curve, poor fit]

Q: With `CC(C)C(C(=O)NCc1ccco1)N(C(=O)CNS(=O)(=O)c1ccccc1)C1CCCC1` (stereo unspecified) as the molecule, how does the activity change, negative = inhibition read?
A: inconclusive: 152% [activator]

Q: With `COc1ccc(OC)c(C(=O)c2ccc(C(=O)Nc3ccc(NC(C)=O)cc3)cc2)c1` as the molecule, how does the Potency read?
A: inconclusive: 23.1 µM [inhibitor, single point]

Q: For `CCOC(=O)C1(Cc2ccc(OC)cc2)CCN(C(=O)c2cc(C)nn2C)CC1`, which Potency is on record?
A: inconclusive: 14.6 µM [inhibitor, partial curve]

Q: Which Potency does the source give for `COc1ccc(C2c3[nH]c4ccccc4c3CCN2CCCn2cccn2)c(F)c1` (stereo unspecified) here?
A: inconclusive: 29.1 µM [inhibitor, single point]

Q: Which Potency does the source give for `N/C(=N\OC(=O)c1ccccc1Cl)c1cccc([N+](=O)[O-])c1` here?
A: inconclusive: 6.51 µM [activator, partial curve]

Q: Which Potency does the source give for `CCOc1ccc(CNC(=O)CCCOc2cc(=O)n(C)c3ccccc23)cc1` here?
A: inconclusive: 16.4 µM [activator, single point]

Q: Which Potency does the source give for `Cc1cc(OCCCN2CCN(Cc3ccccc3)CC2)ccc1[N+](=O)[O-]` here?
A: inconclusive: 23.1 µM [inhibitor, partial curve, poor fit]

Q: Which Potency does the source give for `CC(C)NC(=O)c1c(O)c2cccc3c2n(c1=O)CCC3` here?
A: inactive

Q: For `O=C1COc2ccc(C(=O)COC(=O)c3ccco3)cc2N1`, which Potency is on record?
A: inactive

Q: Which Potency does the source give for `O=C(COC(=O)C1CC2C=CC1C2)Nc1c(Br)cc([N+](=O)[O-])cc1Br` (stereo unspecified) here?
A: active: 4.61 µM

Q: With `CCC(=O)Nc1ccc(S(=O)(=O)N2CCc3ccccc3C2)cc1` as the molecule, how does the Potency read?
A: inconclusive: 11.6 µM [inhibitor, partial curve, poor fit]
